This passage reports binding results from article PMC5716531.

By UniProt entry, the sequences of proteins in these tests, tags left out. Where a name states a change or a piece, a line headed by the entry shows the natural chain unless it says otherwise.
UniProt P07305: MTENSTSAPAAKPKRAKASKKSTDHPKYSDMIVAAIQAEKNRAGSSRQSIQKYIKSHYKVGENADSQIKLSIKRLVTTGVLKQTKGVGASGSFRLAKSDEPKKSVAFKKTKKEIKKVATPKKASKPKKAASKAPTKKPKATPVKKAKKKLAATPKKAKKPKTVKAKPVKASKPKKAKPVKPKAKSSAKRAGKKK

These are yes or no findings as the source states them, for the method shown. Some entries that bind do so weakly or less than the wild type. Tags and fused reporters may be left off the sequences shown.

The target in this experiment is T1, S. pombe Nap1 histone chaperone (nucleosome assembly protein 1) (S. pombe) (UniProt O59797).
T1 sequence: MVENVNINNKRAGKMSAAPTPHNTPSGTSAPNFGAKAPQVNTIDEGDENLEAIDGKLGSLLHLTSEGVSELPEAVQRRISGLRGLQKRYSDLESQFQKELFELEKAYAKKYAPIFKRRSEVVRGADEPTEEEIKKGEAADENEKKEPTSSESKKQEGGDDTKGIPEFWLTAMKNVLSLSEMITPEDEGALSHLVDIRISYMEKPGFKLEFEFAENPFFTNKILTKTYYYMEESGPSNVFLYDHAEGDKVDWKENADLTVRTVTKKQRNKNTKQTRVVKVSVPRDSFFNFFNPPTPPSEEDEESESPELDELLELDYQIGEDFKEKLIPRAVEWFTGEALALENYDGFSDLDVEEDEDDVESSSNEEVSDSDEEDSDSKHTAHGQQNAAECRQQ
Put plainly: native gel or EMSA; Nap1 (1 ug) mixed with histone, 30 min at room temperature; 15 mM HEPES/NaOH pH 7.5, 150 mM NaCl, 1 mM DTT; 6% native polyacrylamide gel in 1x TBE at 4 C, SimplyBlue SafeStain; both purified.
In the case of “H. sapiens H1.0 linker histone C-terminal domain (residues 96-end) (from UniProt P07305 96-194) (domain or fragment)”, the binding result is reported as “binds”.
For the substance “H. sapiens H1.0 linker histone N-terminal and globular domains (residues 1-95) (from UniProt P07305 1-95) (domain or fragment)”, the binding entry is reported as “binds”.
Next, “Homo sapiens H1.0 linker histone, full-length (H1.0-His6 after removal of GST) (from UniProt P07305 1-194)”: “binds”.
